Measured data: PubChem BioAssay AID1259308 (NCATS, 2017)
In all, the deposit lists about 59,000 reagents; below is a random part of them. About 1,510 of them (2.6%) were called active. 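Calls use total luciferase alone and ignore viability, so some active siRNAs may act by altering cell number.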 Entries without a mark were called inactive. Reagents against one gene are numbered here. Not all columns of the deposit are shown.

- Aim: 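Knock-downs that increase output of a recombinant reporter protein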 (primary screen)
- Cell system: human HEK293 embryonic kidney cells stably expressing firefly luciferase (HEK-CMV-Luc2-Hygro)
- Reagent: single siRNA against human genes, 0.8 pmol siRNA per well
- Time to read-out: 72 h
- Measurement: 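Luciferase light (ONE-Glo) measured on one replicate plate set and viability (CellTiter-Glo) on the other, scaled to a negative control siRNA, with robust z-scores and luciferase per cell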
- Reading the numbers: total luciferase, z-score and total luciferase, % of control: higher = more reporter protein produced; luciferase per cell, z-score: higher = more reporter output per viable cell
- Hit rule: 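An siRNA counts as active if its total luciferase robust z-score exceeds 3; genes with two or more such siRNAs out of three were retested with fresh siRNAs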
- Meaning of the calls: active = raised luciferase; inactive = no rise

| Target gene | reagent | total luciferase, z-score | total luciferase, % of control | luciferase per cell, z-score |
| --- | --- | --- | --- | --- |
| GNG13 (GeneID 51764) | 1 | 0.334 | 88.5 | 0.388 |
| GNG13 (GeneID 51764) | 2 | 0.221 | 86.3 | 0.661 |
| GNG13 (GeneID 51764) | 3 | -0.584 | 70.3 | 0.00356 |
| MKRN2 (GeneID 23609) | 1 | -0.771 | 66.6 | -0.298 |
| MKRN2 (GeneID 23609) | 2 | 1.12 | 104 | 0.563 |
| MKRN2 (GeneID 23609) | 3 | 0.657 | 95 | 0.088 |
| RTP3 (GeneID 83597) | 1 | 1.53 | 112 | 2.16 |
| RTP3 (GeneID 83597) | 2 | 0.0545 | 83 | 3.06 |
| RTP3 (GeneID 83597) | 3 | -0.459 | 72.8 | -0.607 |
| NPY2R (GeneID 4887) | 1 | 0.661 | 95 | 0.0971 |
| NPY2R (GeneID 4887) | 2 | -0.543 | 71.1 | -0.612 |
| NPY2R (GeneID 4887) | 3 | -0.383 | 74.3 | -0.391 |
| RHAG (GeneID 6005) | 1 | 0.985 | 101 | 0.61 |
| RHAG (GeneID 6005) | 2 | -1.69 | 48.2 | -2.14 |
| RHAG (GeneID 6005) | 3 | -0.835 | 65.3 | -0.871 |
| GCLM (GeneID 2730) | 1 | -0.344 | 75 | 0.534 |
| GCLM (GeneID 2730) | 2 | 0.0875 | 83.6 | -0.445 |
| GCLM (GeneID 2730) | 3 | -0.363 | 74.7 | -1.03 |
| LRRC18 (GeneID 474354) | 1 | -0.216 | 77.6 | 0.238 |
| LRRC18 (GeneID 474354) | 2 | 1.46 | 111 | 1.05 |
| LRRC18 (GeneID 474354) | 3 | -0.179 | 78.3 | 0.084 |
| TMEM170A (GeneID 124491) | 1 | -0.371 | 74.5 | 0.457 |
| TMEM170A (GeneID 124491) | 2 | 0.0108 | 82.1 | -0.427 |
| TMEM170A (GeneID 124491) | 3 | 1.74 | 116 | 0.849 |
| DCLRE1C (GeneID 64421) | 1 | 0.288 | 87.6 | 0.548 |
| DCLRE1C (GeneID 64421) | 2 | -1.79 | 46.2 | -2.18 |
| DCLRE1C (GeneID 64421) | 3 | 0.0909 | 83.7 | 0.153 |
| UBTFL7 (GeneID 646759) | 1 | -1.71 | 47.9 | -1.11 |
| UBTFL7 (GeneID 646759) | 2 | -0.697 | 68 | -1.28 |
| UBTFL7 (GeneID 646759) | 3 | 1.47 | 111 | 1.95 |
| PDS5B (GeneID 23047) | 1 | 0.492 | 91.7 | 0.468 |
| PDS5B (GeneID 23047) | 2 | -0.16 | 78.7 | -0.557 |
| PDS5B (GeneID 23047) | 3 | -0.0743 | 80.4 | 0.197 |
| SLC38A2 (GeneID 54407) | 1 | -0.253 | 76.9 | 0.0379 |
| SLC38A2 (GeneID 54407) | 2 | 0.306 | 88 | 0.706 |
| SLC38A2 (GeneID 54407) | 3 | -1.44 | 53.3 | -0.398 |
| ACCS (GeneID 84680) | 1 | -0.807 | 65.8 | -0.389 |
| ACCS (GeneID 84680) | 2 | -0.278 | 76.4 | 0.38 |
| ACCS (GeneID 84680) | 3 | -0.831 | 65.4 | -0.747 |
| IVD (GeneID 3712) | 1 | 0.296 | 87.8 | 0.181 |
| IVD (GeneID 3712) | 2 | -0.027 | 81.3 | -0.248 |
| IVD (GeneID 3712) | 3 | 0.157 | 85 | -0.154 |
| CEP57L1 (GeneID 285753) | 1 | 0.288 | 87.6 | -0.135 |
| CEP57L1 (GeneID 285753) | 2 | -1.06 | 60.8 | 0.554 |
| CEP57L1 (GeneID 285753) | 3 | 2.39 | 129 | 1.65 |
| DUSP19 (GeneID 142679) | 1 | 1.56 | 113 | 1.37 |
| DUSP19 (GeneID 142679) | 2 | -0.359 | 74.7 | -0.775 |
| DUSP19 (GeneID 142679) | 3 | 0.368 | 89.2 | 1.81 |
| CASKIN2 (GeneID 57513) | 1 | -1.38 | 54.5 | -0.441 |
| CASKIN2 (GeneID 57513) | 2 | 0.577 | 93.4 | 0.593 |
| CASKIN2 (GeneID 57513) | 3 | 0.765 | 97.1 | 0.348 |
| CYP3A7 (GeneID 1551) | 1 | 2.28 | 127 | 1.76 |
| CYP3A7 (GeneID 1551) | 2 | -1.25 | 57 | -1.76 |
| CYP3A7 (GeneID 1551) | 3 | -0.516 | 71.6 | -0.653 |
| PES1 (GeneID 23481) | 1 | -2 | 42.2 | -1.94 |
| PES1 (GeneID 23481) | 2 | -0.315 | 75.6 | -0.344 |
| PES1 (GeneID 23481) | 3 | -0.888 | 64.2 | 0.0811 |

8 entries already listed, sorted by “total luciferase, % of control”, high to low:
| Target gene | reagent | total luciferase, z-score | total luciferase, % of control | luciferase per cell, z-score |
| --- | --- | --- | --- | --- |
| SLC38A2 (GeneID 54407) | 2 | 0.306 | 88 | 0.706 |
| PDS5B (GeneID 23047) | 3 | -0.0743 | 80.4 | 0.197 |
| PDS5B (GeneID 23047) | 2 | -0.16 | 78.7 | -0.557 |
| SLC38A2 (GeneID 54407) | 1 | -0.253 | 76.9 | 0.0379 |
| ACCS (GeneID 84680) | 2 | -0.278 | 76.4 | 0.38 |
| ACCS (GeneID 84680) | 1 | -0.807 | 65.8 | -0.389 |
| ACCS (GeneID 84680) | 3 | -0.831 | 65.4 | -0.747 |
| SLC38A2 (GeneID 54407) | 3 | -1.44 | 53.3 | -0.398 |
